# PubChem BioAssay AID1259405 – NCATS, 2018
# Aim: 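Silenced genes that increase secreted GFP made by CHO cells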 (primary screen)
# Cells: Chinese hamster CHO-K1 ovary cells with stable secreted eGFP expression
# Reagents: single siRNA against mouse genes, 0.8 pmol siRNA per well (2 µl of 400 nM stock)
# Time to read-out: 3 days
# Measured: 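Percent of the per-plate non-targeting control median for intracellular GFP per well by laser scanning cytometry and for cell viability by ATP luminescence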
# Reading the numbers: GFP, % of control: higher = more GFP per well, higher productivity; viability (ATP), % of control: higher = more viable cells (more ATP)
# Hit rule: 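a knock-down is called active if GFP reaches 120% or more of non-targeting control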
# The deposit covers about 50,000 reagents; this is an unselected part. In the full data, about 4,000 (8%) got an active call. 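Mouse siRNA library applied to hamster cells; one well for each siRNA.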 Reagents against one gene are numbered here.
target,reagent,"GFP, % of control","viability (ATP), % of control",call
Or2n1e (olfactory receptor family 2 subfamily N member 1E),1,66.2,77.9,inactive
Or2n1e (olfactory receptor family 2 subfamily N member 1E),2,82.4,65.3,inactive
Or2n1e (olfactory receptor family 2 subfamily N member 1E),3,57.5,74.8,inactive
Mmp21 (matrix metallopeptidase 21),1,67.7,92.4,inactive
Mmp21 (matrix metallopeptidase 21),2,41.9,58.7,inactive
Carm1 (coactivator-associated arginine methyltransferase 1),1,156,98,active
Carm1 (coactivator-associated arginine methyltransferase 1),2,113,147,inactive
Carm1 (coactivator-associated arginine methyltransferase 1),3,133,115,active
Ift172 (intraflagellar transport 172),1,61.2,71.3,inactive
Ift172 (intraflagellar transport 172),2,84.3,79.5,inactive
Ift172 (intraflagellar transport 172),3,68.2,78.9,inactive
"Actb (actin, beta)",1,61.9,85.4,inactive
"Actb (actin, beta)",2,95.5,96,inactive
Wars1 (tryptophanyl-tRNA synthetase1),1,60.3,75.3,inactive
Wars1 (tryptophanyl-tRNA synthetase1),2,68.8,55.1,inactive
Ntan1 (N-terminal Asn amidase),1,48.3,59.7,inactive
Ntan1 (N-terminal Asn amidase),2,55.7,48.6,inactive
Ntan1 (N-terminal Asn amidase),3,104,53.5,inactive
Pfdn4 (prefoldin 4),1,53.1,59.3,inactive
Pfdn4 (prefoldin 4),2,32.4,59.8,inactive
Pfdn4 (prefoldin 4),3,101,119,inactive
"Mgrn1 (mahogunin, ring finger 1)",1,88.4,79.6,inactive
"Mgrn1 (mahogunin, ring finger 1)",2,96.2,89.8,inactive
"Mgrn1 (mahogunin, ring finger 1)",3,85.9,91.5,inactive
"Tnfsf13b (tumor necrosis factor (ligand) superfamily, member 13b)",1,85.1,90.4,inactive
"Tnfsf13b (tumor necrosis factor (ligand) superfamily, member 13b)",2,63.6,72.1,inactive
"Tnfsf13b (tumor necrosis factor (ligand) superfamily, member 13b)",3,140,101,active
Fth1 (ferritin heavy polypeptide 1),1,77.6,87.6,inactive
Fth1 (ferritin heavy polypeptide 1),2,117,115,inactive
Fth1 (ferritin heavy polypeptide 1),3,117,73.8,inactive
Uchl4 (ubiquitin carboxyl-terminal esterase L4),1,144,90.1,active
Uchl4 (ubiquitin carboxyl-terminal esterase L4),2,89.9,79,inactive
Uchl4 (ubiquitin carboxyl-terminal esterase L4),3,74.8,90,inactive
Orai2 (ORAI calcium release-activated calcium modulator 2),1,72.7,69.4,inactive
Orai2 (ORAI calcium release-activated calcium modulator 2),2,64.8,74.9,inactive
Orai2 (ORAI calcium release-activated calcium modulator 2),3,63.7,88.9,inactive
Ankrd52 (ankyrin repeat domain 52),1,65.7,66.3,inactive
Ankrd52 (ankyrin repeat domain 52),2,37.5,32.6,inactive
Ankrd52 (ankyrin repeat domain 52),3,44.2,61,inactive
Rgs3 (regulator of G-protein signaling 3),1,87.5,78.4,inactive
Rgs3 (regulator of G-protein signaling 3),2,102,91.1,inactive
Rgs3 (regulator of G-protein signaling 3),3,79.7,66.9,inactive
Rab11fip2 (RAB11 family interacting protein 2 (class I)),1,86.7,81.6,inactive
Rab11fip2 (RAB11 family interacting protein 2 (class I)),2,79.6,68.9,inactive
Rab11fip2 (RAB11 family interacting protein 2 (class I)),3,72.8,75.7,inactive
"Cyp19a1 (cytochrome P450, family 19, subfamily a, polypeptide 1)",1,79.5,81.3,inactive
"Cyp19a1 (cytochrome P450, family 19, subfamily a, polypeptide 1)",2,81.4,70.5,inactive
"Cyp19a1 (cytochrome P450, family 19, subfamily a, polypeptide 1)",3,80.6,62.3,inactive
Ubox5 (U box domain containing 5),1,86.6,88.2,inactive
Ubox5 (U box domain containing 5),2,93.6,78,inactive
Ubox5 (U box domain containing 5),3,121,83.1,active
"Ear14 (eosinophil-associated, ribonuclease A family, member 14)",1,55,44.2,inactive
"Ear14 (eosinophil-associated, ribonuclease A family, member 14)",2,85.6,95.9,inactive
"Ear14 (eosinophil-associated, ribonuclease A family, member 14)",3,35.2,44.4,inactive
Or2ag12 (olfactory receptor family 2 subfamily AG member 12),1,81.6,72.1,inactive
Or2ag12 (olfactory receptor family 2 subfamily AG member 12),2,70.7,67.3,inactive
Or2ag12 (olfactory receptor family 2 subfamily AG member 12),3,104,91.4,inactive
Fitm1 (fat storage-inducing transmembrane protein 1),1,70.9,81,inactive
Fitm1 (fat storage-inducing transmembrane protein 1),2,58,67,inactive
Fitm1 (fat storage-inducing transmembrane protein 1),3,54.3,86,inactive
Chil3 (chitinase-like 3),1,95,64,inactive
Chil3 (chitinase-like 3),2,72.3,78,inactive
Chil3 (chitinase-like 3),3,49.2,43.2,inactive
Cep57l1 (centrosomal protein 57-like 1),1,76.8,85.9,inactive
Cep57l1 (centrosomal protein 57-like 1),2,126,69.5,active
Cep57l1 (centrosomal protein 57-like 1),3,108,131,inactive
Rcbtb1,1,101,81.1,inactive
Rcbtb1,2,93.2,85.7,inactive
Rcbtb1,3,50.7,68,inactive
Sorcs1 (sortilin-related VPS10 domain containing receptor 1),1,48.2,50.5,inactive
Sorcs1 (sortilin-related VPS10 domain containing receptor 1),2,97.1,85,inactive
Sorcs1 (sortilin-related VPS10 domain containing receptor 1),3,49,25.5,inactive
Dph2 (DPH2 homolog),1,92.6,97.1,inactive
Dph2 (DPH2 homolog),2,112,90.8,inactive
Dph2 (DPH2 homolog),3,120,70.3,active
Or51g1 (olfactory receptor family 51 subfamily G member 1),1,40.6,66.9,inactive
Or51g1 (olfactory receptor family 51 subfamily G member 1),2,69.8,79.3,inactive
Or51g1 (olfactory receptor family 51 subfamily G member 1),3,88.1,91.4,inactive
D130007C19Rik (RIKEN cDNA D130007C19 gene),1,105,90.9,inactive
D130007C19Rik (RIKEN cDNA D130007C19 gene),2,145,56.5,active
D130007C19Rik (RIKEN cDNA D130007C19 gene),3,87.5,115,inactive
Or5m11 (olfactory receptor family 5 subfamily M member 11),1,75.4,105,inactive
Or5m11 (olfactory receptor family 5 subfamily M member 11),2,78.3,99.2,inactive
Or5m11 (olfactory receptor family 5 subfamily M member 11),3,165,81.5,active

Laid out differently: results already given.
Cep57l1 (centrosomal protein 57-like 1) #2
- GFP, % of control: 126
- viability (ATP), % of control: 69.5
- call: active

Cep57l1 (centrosomal protein 57-like 1) #3
- GFP, % of control: 108
- viability (ATP), % of control: 131
- call: inactive

Rcbtb1 #1
- GFP, % of control: 101
- viability (ATP), % of control: 81.1
- call: inactive

Rcbtb1 #2
- GFP, % of control: 93.2
- viability (ATP), % of control: 85.7
- call: inactive

Rcbtb1 #3
- GFP, % of control: 50.7
- viability (ATP), % of control: 68
- call: inactive

Sorcs1 (sortilin-related VPS10 domain containing receptor 1) #1
- GFP, % of control: 48.2
- viability (ATP), % of control: 50.5
- call: inactive

Sorcs1 (sortilin-related VPS10 domain containing receptor 1) #2
- GFP, % of control: 97.1
- viability (ATP), % of control: 85
- call: inactive

Sorcs1 (sortilin-related VPS10 domain containing receptor 1) #3
- GFP, % of control: 49
- viability (ATP), % of control: 25.5
- call: inactive

Dph2 (DPH2 homolog) #1
- GFP, % of control: 92.6
- viability (ATP), % of control: 97.1
- call: inactive

Dph2 (DPH2 homolog) #2
- GFP, % of control: 112
- viability (ATP), % of control: 90.8
- call: inactive

Dph2 (DPH2 homolog) #3
- GFP, % of control: 120
- viability (ATP), % of control: 70.3
- call: active
